Measured values reported in PubChem BioAssay AID504467 (National Center for Advancing Translational Sciences (NCATS), 2011).
Screen size: about 330,000 compounds; about 7,700 (2.3%) were called active. This list was built around the results that the source calls inconclusive (neither active nor inactive); the mix of calls is not that of the screen. Calls come from the whole dose curve; as a rule, active = well fitted inhibition curve with a large enough effect; inconclusive = small, poorly fitted or top-dose-only effect, or effect the other way; inactive = flat fitted curve, though single readings scatter. Potencies beside an inconclusive call are fits to weak or partial responses and may not hold up.
Potency is the fitted concentration of half-maximal effect.

Test: qHTS screen for small molecules that inhibit ELG1-dependent DNA repair in human embryonic kidney (HEK293T) cells expressing luciferase-tagged ELG1; note: nearly all actives have a fitted effect of over 55% in size
Settings: HEK293T ELG1-luciferase reporter, luminescence, 16 h, DNA damage induced by 5-fluorouridine; series mostly up to 46.1 µM
In short: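 Quantitative HTS, concentration-response format. 2,000 cells/well co-treated with 5-fluorouridine and compound, 16 hr in 5% CO2 at 37 °C; ONE-Glo luminescence read after 30 min.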
For `Cc1cccc(NS(=O)(=O)c2c(C(=O)N3CCOCC3)c(C)n(C)c2C)c1C`, the Potency was “inactive”.
In the case of `COc1ccc(C2CC(=O)c3c(C)nc(N4CCN(Cc5ccccc5)CC4)nc3C2)cc1OC` (configuration not stated), the Potency is reported as inconclusive: 18.4 µM [inhibitor, partial curve, poor fit].
For `CCOc1ccccc1N1CCN(C(=O)c2cc(-c3cc(OC)ccc3OC)nc3ccccc23)CC1`, the Potency was active: 6.51 µM.
In the case of `C=CCOc1c(OC)cc(/C=N/Nc2cccc(C(=O)O)c2)c(Br)c1Br`, the Potency is reported as inconclusive: 16.4 µM [activator, partial curve].
In the case of `CC(C)N(Cc1nc(-c2ccc(Cl)cc2)no1)C(=O)CCC1CCCC1`, the Potency is reported as “inactive”.
With `O=C(Nc1cn(-c2ccccc2)nc1-c1ccccc1)c1ccccc1` the Potency was inconclusive: 25.9 µM [inhibitor, single point].
In the case of `Cc1ccc(C(=O)CN2C(=O)NC3(CCc4ccccc43)C2=O)s1` (configuration not stated), the Potency is reported as inconclusive: 23.1 µM [activator, partial curve, poor fit].
In the case of `O=C(CSc1nnc(CNC(=O)c2ccco2)o1)Nc1cccc(F)c1`, the Potency is reported as “inactive”.
For `Cc1ccc(Nc2cc(C)nn2-c2nc(C)cc(C)n2)cc1`, the Potency was active: 14.6 µM.
With `Cc1ccccc1C(=O)NC(=S)Nc1ccccc1C(F)(F)F` the Potency was “inactive”.
In the case of `COCCn1cc(C(=O)NCCCOC(C)C)c2c3ccccc3n(C)c2c1=O`, the Potency is reported as inconclusive: 25.9 µM [inhibitor, single point].
In the case of `CN(Cc1ccccc1)C1(CNC(=O)CCC(F)(F)F)Cc2ccccc2C1`, the Potency is reported as “inactive”.
In the case of `CCN(CC)CCCNc1nc(SC)nc2sc3c(c12)CCN(C)C3`, the Potency is reported as inconclusive: 5.8 µM [activator, partial curve, poor fit].
In the case of `COc1ccccc1CNC(=O)CS(=O)(=O)c1ccccc1`, the Potency is reported as “inactive”.
For `O=c1[nH]c(C2CCCN(S(=O)(=O)c3ccc(F)cc3)C2)nc2c1nnn2Cc1ccc(F)cc1` (configuration not stated), the Potency was inconclusive: 14.6 µM [inhibitor, partial curve].
For `Cc1cccc(OCCCC(=O)Nc2ccc(Br)cc2)c1`, the Potency was “inactive”.
With `COc1ccc(-c2cc3nc(C)cc(N)n3n2)cc1` the Potency was inconclusive: 0.92 µM [activator, partial curve].
For `Cc1ccc(NC(=O)c2nc(S(=O)(=O)Cc3ccccc3C)ncc2Cl)cc1C`, the Potency was inconclusive: 29.1 µM [inhibitor, single point].
For `Cc1c(Cl)cnc(NC(=O)COC(=O)c2ccncc2)c1Cl`, the Potency was “inactive”.
In the case of `CC(=O)c1ccccc1NC(=O)COC(=O)c1ccc2c(c1)nc(C)n2-c1ccccc1`, the Potency is reported as inconclusive: 23.1 µM [inhibitor, partial curve, poor fit].
For `CCS(=O)(=O)Nc1cccc(C(=O)CC2(O)C(=O)Nc3ccccc32)c1` (configuration not stated), the Potency was “inactive”.
With `CCCn1nnnc1SCC(=O)N1C(C)CCCC1C` (configuration not stated) the Potency was “inactive”.
In the case of `CN(C)CCCN(C(=O)COc1ccc(Cl)cc1)c1nc2ccc(F)cc2s1`, the Potency is reported as “inactive”.
With `O=C(O)CC1S/C(=N\N=C2\C(=O)Nc3ccccc32)N(c2ccc(O)cc2)C1=O` (configuration not stated) the Potency was “inactive”.
For `Cc1cc(C)n(CC(=O)N/N=C/c2ccc3c(c2)OCO3)n1`, the Potency was inconclusive: 20.6 µM [activator, partial curve, poor fit].
In the case of `COc1ccc(N=c2cc(-c3ccc(O)cc3)oc3ccccc23)cc1`, the Potency is reported as inconclusive: 29.1 µM [inhibitor, single point].
In the case of `Cc1cc(=O)n2[nH]c(SCc3ccc(Cl)cc3)nc2n1`, the Potency is reported as “inactive”.
In the case of `COc1cccc(NC(=O)c2nnn(CC(=O)Nc3cc(C)cc(C)c3)c2N)c1`, the Potency is reported as inconclusive: 16.4 µM [activator, single point].
In the case of `Cc1ccc2nc(COc3ccc(N(C)S(=O)(=O)c4ccccc4)cc3)cc(=O)n2c1`, the Potency is reported as inconclusive: 29.1 µM [inhibitor, single point].
In the case of `O=C1CCCC/C1=C/NCc1ccccc1`, the Potency is reported as inconclusive: 18.3 µM [activator, single point].
In the case of `COc1ccc2c(CC(=O)NNC(=O)c3cccs3)coc2c1`, the Potency is reported as inconclusive: 23.1 µM [activator, single point].
In the case of `CCN(CCCn1c(=S)[nH]c2ncccc2c1=O)c1ccccc1`, the Potency is reported as inconclusive: 0.58 µM [activator, full curve, poor fit].
With `CSc1cccc(NC(=O)Nc2ccc(Cl)cc2)c1` the Potency was inconclusive: 14.6 µM [activator, single point].
In the case of `O=C(Cc1ccccc1)Nc1ccc(NC(=O)C2CC2)nc1`, the Potency is reported as “inactive”.
With `COc1ccc(C(=O)/C=C/Nc2c(C)n(C)n(-c3ccccc3)c2=O)cc1OC` the Potency was inconclusive: 11.6 µM [inhibitor, partial curve, poor fit].
For `CC(C)(C)N1C(=O)[C@H]2[C@@H](c3ccc(Br)cc3)N3C(=O)N(c4cccc(Br)c4)C(=O)[C@@]3(Cc3ccccc3)[C@H]2C1=O`, the Potency was “inactive”.
With `CCOC(=O)c1[nH]c2ccc(OC)cc2c1NC(=O)CN1CCc2ccccc2C1` the Potency was active: 16.4 µM.
In the case of `CCOC(=O)c1ccc(CNCc2ccccc2)cc1`, the Potency is reported as inconclusive: 20.6 µM [activator, partial curve].
For `CCOC(=O)CNc1nc(C#N)nc(N2CCOCC2)n1`, the Potency was “inactive”.
With `CSc1nc2ccc(NC(=O)C3CCCO3)cc2s1` (configuration not stated) the Potency was inconclusive: 9.2 µM [activator, partial curve].
With `CCN(CC)c1ccc(/C=C2/C(=O)c3ccc(C(=O)O)cc3C2=O)cc1` the Potency was inconclusive: 18.4 µM [activator, partial curve].
For `COc1ccc(Nc2nc3ccccc3c(=O)[nH]2)cc1`, the Potency was “inactive”.
With `O=C(Nc1nccs1)C1CCCN(S(=O)(=O)c2cccc3cccnc23)C1` (configuration not stated) the Potency was active: 23.1 µM.
In the case of `C/C(CC(=O)Nc1ccccn1)=N\NC(=O)c1ccncc1`, the Potency is reported as “inactive”.
In the case of `Cc1csc(NC(=O)CN2C(=O)COc3ccc(Cl)cc32)n1`, the Potency is reported as inconclusive: 25.9 µM [activator, partial curve, poor fit].
For `O=C(Cc1ccc2c(c1)OCCO2)N1CCN(S(=O)(=O)c2ccccc2C(F)(F)F)CC1`, the Potency was inconclusive: 29.1 µM [inhibitor, single point].
In the case of `O=C(CSc1ccc(-c2ccccn2)nn1)Nc1ccc(F)cc1F`, the Potency is reported as inconclusive: 25.9 µM [inhibitor, partial curve, poor fit].
In the case of `O=C(O)c1ccc(/C=N/Nc2cccc(C(F)(F)F)c2)cc1`, the Potency is reported as inconclusive: 13 µM [activator, partial curve].
In the case of `CCOc1ccc(-c2nnc(-c3ccc(OC)cc3)o2)cc1`, the Potency is reported as inconclusive: 29.1 µM [activator, single point].
In the case of `CN1CCN(NC(=O)Nc2ccc(Br)cc2Cl)CC1`, the Potency is reported as inconclusive: 16.4 µM [activator, single point].
In the case of `COc1ccc(S(=O)(=O)N2CCC(C(=O)Nc3cccc(C(C)=O)c3)CC2)cc1`, the Potency is reported as inconclusive: 32.6 µM [inhibitor, single point].
With `COc1cccc(/C=N/Nc2ccc(S(=O)(=O)O)cc2)c1O` the Potency was inconclusive: 23.1 µM [inhibitor, single point].
With `S=C(NCCc1ccccc1)Nc1cccc2cnccc12` the Potency was active: 1.46 µM.
In the case of `CCC1(c2ccccc2)NC(=O)N(CC(=O)Nc2ccc(S(=O)(=O)Nc3ncccn3)cc2)C1=O` (configuration not stated), the Potency is reported as “inactive”.
With `O=C(c1ccc2oc(CCc3ccccc3)nc2c1)N1CC[C@H](O)C1` the Potency was inconclusive: 10.3 µM [activator, partial curve].
For `COc1cc(C(=O)Nc2cccc3cccnc23)cc(OC)c1OC`, the Potency was active: 20.6 µM.
With `CCn1c(-c2ccccc2O)n[nH]c1=S` the Potency was “inactive”.
For `Cc1ccc(-c2nc(C#N)c(NCC3CCCO3)o2)cc1` (configuration not stated), the Potency was inconclusive: 18.3 µM [activator, partial curve].
In the case of `COc1cc(OC)cc(C(=O)N2CCN(C(=O)COc3ccc4ccccc4c3)CC2)c1`, the Potency is reported as inconclusive: 29.1 µM [inhibitor, single point].
With `C[C@H]1CN([C@@H](C)CO)C(=O)c2cccc(NS(=O)(=O)c3cn(C)cn3)c2O[C@H]1CN(C)S(C)(=O)=O` the Potency was inconclusive: 25.9 µM [activator, partial curve, poor fit].
With `Cc1cc(C)cc(OCC(=O)N2N=C(c3cccnc3)CC2(O)C(F)(F)F)c1` (configuration not stated) the Potency was inconclusive: 16.4 µM [inhibitor, partial curve, poor fit].
In the case of `Cc1nc(C(=O)NNC(=O)c2ccc(Cl)cc2)cs1`, the Potency is reported as inconclusive: 29.1 µM [activator, single point].
In the case of `Cc1cccc(N2C(=O)C(Oc3ccc(Cl)cc3Cl)C2C(=O)O)c1C` (configuration not stated), the Potency is reported as “inactive”.
With `O=C(/C(=C/O)N=Nc1ccccc1)c1cccs1` the Potency was “inactive”.
In the case of `Cc1ccc(-c2nc3ccccc3s2)cc1NC(=O)c1ccc2c(c1)OCO2`, the Potency is reported as inconclusive: 23.1 µM [inhibitor, single point].
In the case of `CCC(C(=O)NC(C)(C)C)N(Cc1ccco1)C(=O)Cn1nnc(-c2ccc(F)cc2)n1` (configuration not stated), the Potency is reported as inconclusive: 29.1 µM [inhibitor, single point].
For `Cc1cc2cc(C(c3nnnn3CC3CCCO3)N3CCCc4ccccc43)c(=O)[nH]c2cc1C` (configuration not stated), the Potency was “inactive”.
In the case of `CC(=O)Nc1ccc(S(=O)(=O)NCCC(=O)N2CCN(c3ccccc3Cl)CC2)cc1`, the Potency is reported as inconclusive: 7.3 µM [inhibitor, single point].
For `COc1ccc(C(=O)NCc2ccc3[nH]c(C)cc3c2)cc1OC`, the Potency was inconclusive: 20.6 µM [inhibitor, single point].
For `CCOC(=O)C1(CC2CC2)CCN(C(=O)c2cc(C3CC3)nc3ccccc23)CC1`, the Potency was inconclusive: 18.3 µM [inhibitor, single point].
With `CCOC(=O)CN/C=C(\C#N)c1ccccc1` the Potency was “inactive”.
For `O=C(NCC(c1ccco1)N1CCCC1)c1cn(-c2ccccc2)nc1-c1ccc(F)cc1` (configuration not stated), the Potency was inconclusive: 8.2 µM [inhibitor, partial curve, poor fit].
